Measurements as given in PMC10240065.
Results are given in words; binding and its absence hold for the method and conditions named. Binding seen in cells or lysates may run through a third protein. A yes stands for co-enrichment or nearness to the bait. Other partners may have been found. For some assays here: No binding means not detected with the bait. For some assays here: Where a sequence is shown, tags or fusion partners need not be part of it.

Protein sequences, listed by entry. Tags and fused reporters are not part of them.
UniProt P14873: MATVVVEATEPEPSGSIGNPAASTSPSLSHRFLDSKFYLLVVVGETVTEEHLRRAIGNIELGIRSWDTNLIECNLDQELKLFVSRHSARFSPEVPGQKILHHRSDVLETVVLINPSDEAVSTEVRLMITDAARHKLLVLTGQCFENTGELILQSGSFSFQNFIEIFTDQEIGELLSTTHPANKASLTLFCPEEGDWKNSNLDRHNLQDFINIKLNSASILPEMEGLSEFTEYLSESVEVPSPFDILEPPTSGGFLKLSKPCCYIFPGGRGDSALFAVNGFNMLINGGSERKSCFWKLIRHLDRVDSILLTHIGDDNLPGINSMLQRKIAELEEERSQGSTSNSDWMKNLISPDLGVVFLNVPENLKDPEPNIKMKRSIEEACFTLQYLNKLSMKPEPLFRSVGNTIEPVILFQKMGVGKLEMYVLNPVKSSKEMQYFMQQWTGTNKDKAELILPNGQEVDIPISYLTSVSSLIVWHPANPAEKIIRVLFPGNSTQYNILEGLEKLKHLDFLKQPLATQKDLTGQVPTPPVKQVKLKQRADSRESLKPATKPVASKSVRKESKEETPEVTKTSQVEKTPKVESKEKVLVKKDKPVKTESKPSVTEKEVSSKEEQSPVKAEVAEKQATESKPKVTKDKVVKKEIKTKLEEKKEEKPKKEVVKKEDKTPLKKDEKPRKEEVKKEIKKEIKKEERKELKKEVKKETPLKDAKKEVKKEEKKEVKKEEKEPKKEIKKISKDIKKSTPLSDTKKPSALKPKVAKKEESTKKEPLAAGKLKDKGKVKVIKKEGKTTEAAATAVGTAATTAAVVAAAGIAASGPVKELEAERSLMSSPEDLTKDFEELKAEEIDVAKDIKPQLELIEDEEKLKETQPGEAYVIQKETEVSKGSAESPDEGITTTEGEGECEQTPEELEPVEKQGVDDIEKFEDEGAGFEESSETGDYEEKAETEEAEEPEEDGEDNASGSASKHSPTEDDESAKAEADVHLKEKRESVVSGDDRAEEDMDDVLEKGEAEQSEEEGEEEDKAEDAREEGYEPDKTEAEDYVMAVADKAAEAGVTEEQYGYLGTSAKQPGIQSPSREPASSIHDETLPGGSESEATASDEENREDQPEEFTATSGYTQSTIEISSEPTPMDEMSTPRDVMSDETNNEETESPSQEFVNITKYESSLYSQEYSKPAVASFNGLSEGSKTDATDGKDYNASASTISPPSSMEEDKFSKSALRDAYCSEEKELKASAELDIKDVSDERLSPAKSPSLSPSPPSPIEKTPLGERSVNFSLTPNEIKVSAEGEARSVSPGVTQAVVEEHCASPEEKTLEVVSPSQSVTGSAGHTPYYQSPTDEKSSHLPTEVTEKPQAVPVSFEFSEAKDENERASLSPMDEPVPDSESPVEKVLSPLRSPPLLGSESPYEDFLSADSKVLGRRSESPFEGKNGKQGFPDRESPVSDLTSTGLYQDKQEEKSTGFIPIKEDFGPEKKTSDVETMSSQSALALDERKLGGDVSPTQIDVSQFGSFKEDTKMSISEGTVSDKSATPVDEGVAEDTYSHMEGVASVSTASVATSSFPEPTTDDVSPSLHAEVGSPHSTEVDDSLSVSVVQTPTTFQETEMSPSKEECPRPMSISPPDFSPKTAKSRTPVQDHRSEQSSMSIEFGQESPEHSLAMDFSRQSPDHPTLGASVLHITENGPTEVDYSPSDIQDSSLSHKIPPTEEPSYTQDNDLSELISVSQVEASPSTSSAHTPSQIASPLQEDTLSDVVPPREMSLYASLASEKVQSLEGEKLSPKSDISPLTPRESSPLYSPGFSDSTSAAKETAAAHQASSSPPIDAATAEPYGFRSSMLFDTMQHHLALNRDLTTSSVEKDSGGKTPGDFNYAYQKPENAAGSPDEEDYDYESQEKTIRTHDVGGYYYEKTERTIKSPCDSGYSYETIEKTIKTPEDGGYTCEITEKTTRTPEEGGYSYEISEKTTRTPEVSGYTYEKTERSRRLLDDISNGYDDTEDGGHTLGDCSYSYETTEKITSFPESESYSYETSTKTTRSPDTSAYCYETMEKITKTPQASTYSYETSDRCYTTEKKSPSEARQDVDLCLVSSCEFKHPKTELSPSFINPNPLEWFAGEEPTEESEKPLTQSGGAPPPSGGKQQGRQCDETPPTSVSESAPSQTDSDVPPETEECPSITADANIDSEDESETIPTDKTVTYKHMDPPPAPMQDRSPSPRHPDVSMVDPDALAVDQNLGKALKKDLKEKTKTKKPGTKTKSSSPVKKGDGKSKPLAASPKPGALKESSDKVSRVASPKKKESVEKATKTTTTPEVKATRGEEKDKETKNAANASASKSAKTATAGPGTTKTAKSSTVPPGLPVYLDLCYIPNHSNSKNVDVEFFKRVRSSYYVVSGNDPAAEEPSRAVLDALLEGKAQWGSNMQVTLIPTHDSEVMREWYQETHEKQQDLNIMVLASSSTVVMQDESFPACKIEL
UniProt P62137: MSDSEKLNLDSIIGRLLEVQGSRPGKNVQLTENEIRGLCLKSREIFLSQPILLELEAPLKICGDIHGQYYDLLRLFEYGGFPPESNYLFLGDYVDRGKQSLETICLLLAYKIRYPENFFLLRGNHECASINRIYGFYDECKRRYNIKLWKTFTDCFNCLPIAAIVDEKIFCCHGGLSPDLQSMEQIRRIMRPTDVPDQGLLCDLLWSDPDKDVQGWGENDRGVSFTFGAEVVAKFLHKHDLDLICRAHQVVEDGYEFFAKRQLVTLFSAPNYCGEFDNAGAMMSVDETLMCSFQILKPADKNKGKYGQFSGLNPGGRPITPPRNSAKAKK
UniProt P62141: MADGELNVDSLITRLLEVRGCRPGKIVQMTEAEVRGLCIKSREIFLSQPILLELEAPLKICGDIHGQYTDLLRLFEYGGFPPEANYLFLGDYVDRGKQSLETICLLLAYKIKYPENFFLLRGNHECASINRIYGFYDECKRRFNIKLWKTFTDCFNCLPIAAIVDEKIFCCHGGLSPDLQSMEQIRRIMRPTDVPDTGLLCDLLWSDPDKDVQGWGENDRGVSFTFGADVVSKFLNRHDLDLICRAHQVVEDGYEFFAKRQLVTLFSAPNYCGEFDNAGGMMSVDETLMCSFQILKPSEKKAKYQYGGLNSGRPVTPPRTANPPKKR
UniProt P63087: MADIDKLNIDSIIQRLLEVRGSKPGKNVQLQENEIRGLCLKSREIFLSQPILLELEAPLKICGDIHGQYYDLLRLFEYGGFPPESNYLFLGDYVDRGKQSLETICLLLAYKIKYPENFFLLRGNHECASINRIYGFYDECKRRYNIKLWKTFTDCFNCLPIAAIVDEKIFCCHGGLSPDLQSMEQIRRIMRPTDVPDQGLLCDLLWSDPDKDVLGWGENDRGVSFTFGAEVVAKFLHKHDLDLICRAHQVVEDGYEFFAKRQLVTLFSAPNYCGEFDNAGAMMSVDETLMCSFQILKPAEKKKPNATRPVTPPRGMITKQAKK
UniProt Q04207: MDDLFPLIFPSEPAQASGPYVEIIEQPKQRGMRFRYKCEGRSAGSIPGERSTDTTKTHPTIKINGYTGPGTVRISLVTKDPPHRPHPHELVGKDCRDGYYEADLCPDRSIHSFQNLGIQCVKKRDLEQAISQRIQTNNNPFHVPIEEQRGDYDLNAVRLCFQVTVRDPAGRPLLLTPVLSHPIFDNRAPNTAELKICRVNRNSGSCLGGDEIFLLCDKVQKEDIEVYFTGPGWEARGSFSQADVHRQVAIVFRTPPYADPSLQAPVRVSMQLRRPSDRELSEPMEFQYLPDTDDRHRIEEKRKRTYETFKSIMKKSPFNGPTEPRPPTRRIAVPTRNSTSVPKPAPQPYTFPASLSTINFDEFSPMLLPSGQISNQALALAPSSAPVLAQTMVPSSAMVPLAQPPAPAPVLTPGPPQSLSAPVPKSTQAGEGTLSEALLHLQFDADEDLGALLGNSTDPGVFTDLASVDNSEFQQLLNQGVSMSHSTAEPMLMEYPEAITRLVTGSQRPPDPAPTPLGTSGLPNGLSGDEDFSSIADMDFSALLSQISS

How the values were obtained:
Sptan1-Myc (mouse) = Sptan1-Myc (mouse) (UniProt P16546); experiment: affinity purification with mass spectrometry; Eluents of the Sptan1-Myc pull-down from N2A cells cotransfected with Ppp1ca-Flag, Sptan1-Myc and iASPP or tdTomato; whole cells treated with 2 mM DSP, RIPA lysis, anti-tag antibody, protein G beads; LC-MS/MS with phosphorylation site analysis
iASPP-Flag (mouse) = biological target: T1, iASPP-Flag (mouse) (UniProt Q5I1X5); experiment: affinity purification with mass spectrometry; N2A cells transfected with iASPP-Flag or the control tdTomato-Flag, neuronal differentiation induced; whole cells treated with 2 mM DSP cross-linker 30 min, RIPA lysis, anti-tag antibody overnight at 4°C, protein G beads; LC-MS/MS of the eluate
T1 sequence: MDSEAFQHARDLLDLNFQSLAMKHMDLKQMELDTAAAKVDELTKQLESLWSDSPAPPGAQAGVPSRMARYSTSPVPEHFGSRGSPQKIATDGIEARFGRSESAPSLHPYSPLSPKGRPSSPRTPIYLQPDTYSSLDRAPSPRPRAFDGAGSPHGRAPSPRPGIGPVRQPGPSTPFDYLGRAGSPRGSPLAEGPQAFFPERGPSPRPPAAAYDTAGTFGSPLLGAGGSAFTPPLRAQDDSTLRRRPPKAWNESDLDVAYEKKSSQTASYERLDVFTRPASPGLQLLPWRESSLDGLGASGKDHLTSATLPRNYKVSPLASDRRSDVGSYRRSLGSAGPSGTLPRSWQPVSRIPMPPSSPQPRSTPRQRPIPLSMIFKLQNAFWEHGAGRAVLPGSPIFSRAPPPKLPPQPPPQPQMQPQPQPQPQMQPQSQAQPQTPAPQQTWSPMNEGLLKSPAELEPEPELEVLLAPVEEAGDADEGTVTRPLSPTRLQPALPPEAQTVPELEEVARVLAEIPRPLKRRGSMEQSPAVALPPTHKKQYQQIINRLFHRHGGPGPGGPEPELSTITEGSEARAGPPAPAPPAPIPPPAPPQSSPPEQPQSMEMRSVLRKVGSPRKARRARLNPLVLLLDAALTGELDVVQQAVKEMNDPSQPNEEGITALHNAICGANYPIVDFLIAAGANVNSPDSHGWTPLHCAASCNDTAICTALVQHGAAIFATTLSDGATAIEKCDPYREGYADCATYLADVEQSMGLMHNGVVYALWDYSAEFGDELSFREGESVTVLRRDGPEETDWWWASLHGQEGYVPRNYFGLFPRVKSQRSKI

binding (Sptan1-Myc (mouse))	binding (iASPP-Flag (mouse))	Substance
binds	–	Map1b (endogenous) (from UniProt P14873 1-2464)
–	binds	Ppp1ca (from UniProt P62137 1-330) (enzyme)
–	binds	Ppp1cb (from UniProt P62141 1-327) (enzyme)
–	binds	Ppp1cc (from UniProt P63087 1-323) (enzyme)
–	no binding	RelA/p65 (from UniProt Q04207 1-549)
